Source: ChEMBL document CHEMBL4665668, “Design and development of molecular hybrids of 2-pyridylpiperazine and 5-phenyl-1,3,4-oxadiazoles as potential multifunctional agents to treat Alzheimer's disease” (Eur J Med Chem, 2019)

Experiment: Permeability of the compound in PBS/EtOH buffer (7:3) at 25 ug/ml after 18 hrs by PAMPA-BBB assay

Question: For `COc1cc2c(cc1OC)C(=O)C(CC1CCN(Cc3ccccc3)CC1)C2` (stereo unspecified) [DONEPEZIL], which Papp at 18 h, 25 ug/ml is on record?
Answer: The Papp at 18 h, 25 ug/ml was 7.6 ×10⁻⁶ cm/s.
